Drawing on article PMC6679547, this text covers binding for one substance.

Chains of the proteins cited; added tags and fusions are not shown. Lines headed by an entry give the natural chain unless they say otherwise; changes in a name come on top.
UniProt Q9BVL2: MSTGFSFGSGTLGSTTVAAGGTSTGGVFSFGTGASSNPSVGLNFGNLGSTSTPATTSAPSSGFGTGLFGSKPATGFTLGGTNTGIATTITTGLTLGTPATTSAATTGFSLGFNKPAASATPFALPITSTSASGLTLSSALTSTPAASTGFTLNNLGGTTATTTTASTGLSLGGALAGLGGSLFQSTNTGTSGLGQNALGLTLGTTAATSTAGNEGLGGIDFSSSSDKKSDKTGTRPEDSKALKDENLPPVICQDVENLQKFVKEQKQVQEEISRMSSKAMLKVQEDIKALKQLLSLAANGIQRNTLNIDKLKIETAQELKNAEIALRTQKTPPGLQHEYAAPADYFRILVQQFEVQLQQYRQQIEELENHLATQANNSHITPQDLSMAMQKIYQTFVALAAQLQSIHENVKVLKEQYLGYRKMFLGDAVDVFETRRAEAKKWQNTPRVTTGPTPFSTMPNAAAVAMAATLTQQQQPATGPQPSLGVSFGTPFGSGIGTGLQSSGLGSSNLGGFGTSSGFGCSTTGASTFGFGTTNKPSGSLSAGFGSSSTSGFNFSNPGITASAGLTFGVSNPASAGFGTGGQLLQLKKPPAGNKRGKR
UniProt P23258: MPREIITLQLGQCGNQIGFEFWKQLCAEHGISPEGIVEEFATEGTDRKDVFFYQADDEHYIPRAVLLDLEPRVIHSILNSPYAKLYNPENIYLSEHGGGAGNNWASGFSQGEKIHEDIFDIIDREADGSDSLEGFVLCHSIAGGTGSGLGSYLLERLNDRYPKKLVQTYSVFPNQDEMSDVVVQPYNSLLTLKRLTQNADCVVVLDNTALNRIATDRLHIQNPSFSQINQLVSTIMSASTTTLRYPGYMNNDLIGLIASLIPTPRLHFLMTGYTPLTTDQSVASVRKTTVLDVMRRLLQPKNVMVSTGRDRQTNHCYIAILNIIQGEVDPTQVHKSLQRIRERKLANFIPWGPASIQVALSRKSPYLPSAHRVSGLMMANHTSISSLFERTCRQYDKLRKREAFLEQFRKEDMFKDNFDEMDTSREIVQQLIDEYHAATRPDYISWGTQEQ

Experiment [1] deals with Nucleoporin Nup58 (human (endogenous in HeLa)) (UniProt Q9BVL2). Nature of the experiment: co-IP; interphase HeLa cell extracts precipitated with anti-Nup58 (control: nonspecific rabbit IgG); SDS-PAGE and immunoblotting. On the technique in general: Immunoblotting shows a protein as a band on a membrane.
Experiment [2] has the same target. Nature of the experiment: co-IP; mitotic HeLa cell extracts precipitated with anti-Nup58 (control: nonspecific rabbit IgG), protein A/G beads, 1 h at 4 °C; lysis and wash buffer 50 mM Tris-HCl pH 7.2, 250 mM NaCl, 0.1% Nonidet P-40, 2 mM EDTA, 10% glycerol; immunoblotting.

These are yes or no findings as the source states them, for the method shown. In cells and extracts the contact can be indirect. For some assays here: Binding calls can cover weak binding; strength is not graded here.

In the case of γ-tubulin (from UniProt P23258), the binding result in experiment [1] was “no binding (only interphase HeLa cell extracts)”; in experiment [2] it was “binds”.
